The values that follow are results of earlier work, collected in publication PMC11313180 (International Journal of Molecular Sciences, 2024).

SMILES strings stand for the structures.

The test system of this data set is squamous carcinoma cell line Cal27. The conditions noted are these: read-out: IC50 cellular HDAC assay in Cal27, ref [29]; cited from earlier work.

With `O=C(CCCCCCC(=O)Nc1ccccc1)NO` [vorinostat], the IC50 is 880 nM.

As usually defined, the IC50 is the concentration at which inhibition is half-maximal.
